# Source: patent US11737973B2, “Microneedle percutaneous patch containing donepezil” (RAPHAS CO., LTD., priority 2017, dated 2023)
# Structures can show the parent of a compound that is named as a salt.
# Assay: Donepezil PK profile of microneedle patch
# Details: rat, in vivo, po; male SD rats, serum, LC/MS/MS
smiles,measurement,value
COc1cc2c(cc1OC)C(=O)C(CC1CCN(Cc3ccccc3)CC1)C2 (centres unmarked) [donepezil hydrochloride],AUC,0.815 ± 0.163 µg·h/mL
same,Cmax,0.0909 ± 0.0279 µg/mL
